From PMC9604285 come the findings set out here.

Amino acid sequences for entries named in this document (tags omitted).
UniProt P50667: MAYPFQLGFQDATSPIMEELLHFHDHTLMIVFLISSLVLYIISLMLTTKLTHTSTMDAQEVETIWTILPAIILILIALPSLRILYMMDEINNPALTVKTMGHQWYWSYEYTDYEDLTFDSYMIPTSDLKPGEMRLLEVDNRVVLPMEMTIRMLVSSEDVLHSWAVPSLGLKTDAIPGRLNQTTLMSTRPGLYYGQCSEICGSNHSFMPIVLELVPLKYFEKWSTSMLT

This assay has as its target T1, recombinant rat group IIA secreted phospholipase A2 (rGIIA) (rat) (UniProt P14423).
T1 sequence: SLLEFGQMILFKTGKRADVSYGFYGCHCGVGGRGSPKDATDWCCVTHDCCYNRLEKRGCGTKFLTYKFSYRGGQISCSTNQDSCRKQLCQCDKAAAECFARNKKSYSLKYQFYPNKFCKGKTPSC
Briefly: affinity purification with mass spectrom; only the target purified.

No constants are given. Whether binding was seen depends on the method and setting. Binding seen in cells or lysates may run through a third protein. These calls come from enrichment with a bait or labelling near it, and not all partners need be listed.

As to “subunit II of cytochrome c oxidase (CCOX-II) (from UniProt P50667 1-228)”, the binding entry is given as “binds”.
